Reference: article doi:10.1101/2022.02.25.481886

T1: nYFP-VAP27-1 (Arabidopsis) (UniProt Q8VZ95)
T1 sequence: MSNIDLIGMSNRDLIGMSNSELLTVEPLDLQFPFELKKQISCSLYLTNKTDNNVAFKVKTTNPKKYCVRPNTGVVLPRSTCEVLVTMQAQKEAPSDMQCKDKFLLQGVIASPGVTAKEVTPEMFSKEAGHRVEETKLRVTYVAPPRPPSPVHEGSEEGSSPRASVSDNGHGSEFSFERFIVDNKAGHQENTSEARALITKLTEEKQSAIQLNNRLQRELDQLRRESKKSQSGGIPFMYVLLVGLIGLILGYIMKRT


Experiments:
[1] = target: T1, nYFP-VAP27-1 (Arabidopsis); experiment: split reporter
[2] = target: GFP-TraB1a (transgenic Arabidopsis) (Arabidopsis); experiment: co-IP

| binding [1] | binding [2] | Molecule |
| --- | --- | --- |
| binds | – | cYFP-TraB1 (Arabidopsis) |
| – | binds | VAP27-1-RFP (transgenic Arabidopsis) (protein, UniProt Q8VZ95 1-256) MSNIDLIGMSNRDLIGMSNSELLTVEPLDLQFPFELKKQISCSLYLTNKTDNNVAFKVKTTNPKKYCVRPNTGVVLPRSTCEVLVTMQAQKEAPSDMQCKDKFLLQGVIASPGVTAKEVTPEMFSKEAGHRVEETKLRVTYVAPPRPPSPVHEGSEEGSSPRASVSDNGHGSEFSFERFIVDNKAGHQENTSEARALITKLTEEKQSAIQLNNRLQRELDQLRRESKKSQSGGIPFMYVLLVGLIGLILGYIMKRT |

These are yes or no findings as the source states them, for the method shown. Binding seen in cells or lysates may run through a third protein. Binding can be weak; no strength is given. For some assays here: Sequences can lack the tags named with a protein.
